Reference: PubChem BioAssay AID2685 (National Center for Advancing Translational Sciences (NCATS), 2010)
The list shows a part of the results. Further columns of the screen follow, without active or inactive calls. The list favours compounds with an active or inconclusive main result. The note in brackets gives the kind of curve behind each potency; many fits are weak.

Test: qHTS Assay for Lipid Storage Modulators in Drosophila S3 Cells;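 for cell number change: cells counted by Cell Tracker Red CMTPX staining in the red channel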
Conditions: BODIPY lipid droplet fluorescence, 18-24 h; for cell number change: measured here: cell count max response, cells fed with added oleic acid
How it was run: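 Drosophila S3 cells loaded with oleic acid (400 uM, as added) and compounds at several concentrations; lipid droplets imaged by 488-nm laser-scanning cytometry, 500–530 nm intensity and object ratio to cell channel. Percent activity normalized to 20 uM Triacsin C.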

[1] = measured here: cell number channel AC50, cells fed with added oleic acid
[2] = measured here: lipid fluorescence (Fed channel) AC50, cells fed with added oleic acid

## CS(=O)(=O)N1CCc2ccc(NC(=O)C3CCCO3)cc2C1 (stereo not given)
  cell number change: 10.4%

## COc1ccc(CCN2C(=O)C3CC(C)=C(C)CC3C2=O)cc1OC (stereo not given)
  cell number change: -80%
[1]
  AC50: 23.1 µM [falling, partial curve, poor fit]

## COc1ccc(S(=O)(=O)Nc2cc(SCC(=O)O)c(O)c3ccccc23)cc1
  cell number change: -12.5%

## O=C(N/N=C/c1cc([N+](=O)[O-])ccc1O)C(O)(c1ccccc1)c1ccccc1
  cell number change: -9.07%
[2]
  AC50: 29.1 µM [falling, single point]

## CCCc1ccc(OCc2nc(-c3ccc(NC(=O)c4cccs4)cc3)no2)cc1
  cell number change: 2.67%
[2]
  AC50: 6.51 µM [falling, single point]

## COc1ccccc1CNC(=O)c1cn(C)c2ccc(S(=O)(=O)N3CCCC3)cc2c1=O
  cell number change: -11.5%
[2]
  AC50: 1.84 µM [rising, partial curve]

## COc1ccc(Cl)cc1NC(=S)N1CCCCCC1
  cell number change: -13.9%
[2]
  AC50: 29.1 µM [falling, single point]

## O=S(=O)(NC(=S)Nc1ccccc1)c1ccc(F)cc1
  cell number change: -15.7%
[2]
  AC50: 4.11 µM [falling, full curve, poor fit]

## Cc1cccc(C)c1NC(=O)c1c(O)c2ccccc2[nH]c1=O
  cell number change: -42%
[1]
  AC50: 29.1 µM [falling, single point]

## Cc1ccc(C(=O)c2c3ccccc3[n+]([O-])n2CCO)cc1
  cell number change: -13.1%
[2]
  AC50: 0.146 µM [falling, full curve, poor fit]

## COC(=O)c1cc(OC)c(OC)cc1NC(=O)Nc1ccc(OC)cc1
  cell number change: 32.1%
[1]
  AC50: 29.1 µM [rising, single point]
[2]
  AC50: 6.51 µM [falling, single point]

## COc1cccc(N2CCN(c3ccc4nnc(CCC(=O)Nc5ccc(F)cc5F)n4n3)CC2)c1
  cell number change: -31.7%
[1]
  AC50: 3.26 µM [falling, partial curve, poor fit]
[2]
  AC50: 0.651 µM [falling, full curve]

## COC(=O)C1=C(C)NC(=S)NC1c1sccc1C (stereo not given)
  cell number change: 0.773%

## Cc1c(Cl)cccc1NC(=S)N/N=C/c1ccccc1Cl
  cell number change: -0.845%
[2]
  AC50: 20.6 µM [falling, single point]

## COc1cccc(CNC(=O)c2ccc(Cl)c(S(=O)(=O)N3CCOCC3)c2)c1
  cell number change: -3.35%
[2]
  AC50: 0.146 µM [falling, full curve, poor fit]

## O=C1/C(=C/c2cccnc2)Oc2cc(OS(=O)(=O)c3ccccc3)ccc21
  cell number change: -8.59%
[2]
  AC50: 2.31 µM [rising, partial curve]

## COc1cc(/C=C(\C#N)c2nc3c(s2)CCCC3)ccc1O
  cell number change: -36.8%
[1]
  AC50: 20.6 µM [falling, single point]

## O=C(CSc1nnc(C2CC2)n1C1CC1)c1cc(F)ccc1F
  cell number change: -3.31%

## COCCn1c(SCC(=O)c2[nH]c(C)c(C(C)=O)c2C)nc2ccccc2c1=O
  cell number change: 3.72%
[2]
  AC50: 0.00461 µM [rising, full curve, poor fit]

## Cn1c(=O)c2c(nc(CN3CCN(C(=O)c4ccco4)CC3)n2Cc2cccc(Cl)c2)n(C)c1=O
  cell number change: -21.3%
[2]
  AC50: 0.366 µM [rising, full curve, poor fit]

## CC1CCCCN1C(=O)CN1C(=O)CN(C)C(=O)c2ccccc21 (stereo not given)
  cell number change: 38.4%
[1]
  AC50: 29.1 µM [rising, single point]
[2]
  AC50: 0.00461 µM [rising, full curve, poor fit]

## CC1(C)OC(=O)C(=CNCC(=O)NCC(=O)O)C(=O)O1
  cell number change: -17.3%
[2]
  AC50: 8.2 µM [falling, partial curve]

## Cc1ccc(OCC(=O)Nc2cccc(C)n2)c(C)c1
  cell number change: -23.3%
[2]
  AC50: 29.1 µM [rising, single point]

## COC(=O)C1=C(C)Nc2c(c(=O)n(C)c(=O)n2C)C1c1ccc(Cl)cc1 (stereo not given)
  cell number change: -0.0868%
[2]
  AC50: 0.326 µM [rising, full curve, poor fit]

## Cc1ccc(S(=O)(=O)/N=C(/c2ccccc2)N2CCOCC2)c(C)c1
  cell number change: 15.6%
[2]
  AC50: 6.51 µM [rising, single point]

## O=C(NC1CCCC1)C(c1ccccc1F)N(C(=O)c1csnn1)c1ccccc1 (stereo not given)
  cell number change: -21.4%

## CC(C)(C)NC(=O)CCN(/N=C/c1ccncc1)C1=NS(=O)(=O)c2ccccc21
  cell number change: -4.49%

## COC(=O)CNC(=O)CCc1nnc(C2(c3ccc(Cl)cc3)CCC2)o1
  cell number change: 12.7%
[2]
  AC50: 0.00517 µM [falling, full curve, poor fit]

## O=C(CN1C(=O)S/C(=C\C=C\c2ccccc2)C1=O)Nc1cccc(O)c1
  cell number change: -9.39%
[2]
  AC50: 18.4 µM [falling, single point]

## CCc1nnc(NC(=O)CSc2ncnc3c2oc2ccccc23)s1
  cell number change: -8.02%
[2]
  AC50: 0.116 µM [rising, full curve, poor fit]

## O=C(Nc1ccc(N2CCOCC2)c(Cl)c1)c1c(F)c(F)c(F)c(F)c1F
  cell number change: -11.9%
[2]
  AC50: 6.51 µM [falling, single point]

## Cc1c(C(=O)OCC(=O)N2CC(=O)Nc3ccccc32)oc2ccc(Br)cc12
  cell number change: 14.9%

## CCOC(=O)C1CCN(Cc2cccc(Oc3ccccc3)c2)CC1
  cell number change: -11.9%
[2]
  AC50: 3.66 µM [falling, single point]

## Cc1nc(N(CCO)C2CCCCC2)c2nnn(Cc3ccccc3)c2n1
  cell number change: 5.52%
[2]
  AC50: 20.6 µM [falling, single point]

## CCc1nc(SCC(N)=O)c2c(=O)n(C)c(=O)n(C)c2n1
[1]
  AC50: 0.366 µM [rising, single point]

## CCOC(=O)N1CCN(c2nc(C(F)(F)F)nc3c(C)cc(C)cc23)CC1
  cell number change: -0.957%
[2]
  AC50: 3.26 µM [rising, full curve]

## Nc1nc(-c2cccc(Br)c2)cs1
  cell number change: 4.65%

## O=C(NCc1cccnc1)c1ccccc1CCc1ccccc1
  cell number change: -17.5%

## CCOc1ccc(CN2CCNC(=O)C2CC(=O)NCCc2nc(C)c3c(n2)CCC3)cc1 (stereo not given)
[2]
  AC50: 3.26 µM [rising, single point]

## N=C(N)n1c(N)nc2ccccc2c1=O
  cell number change: 12.3%
[2]
  AC50: 6.51 µM [falling, single point]

## Cc1cc2ccc(C)c(C)c2nc1SCC(=O)c1cccs1
  cell number change: 60.7%
[1]
  AC50: 0.651 µM [rising, full curve, poor fit]
[2]
  AC50: 2.31 µM [rising, partial curve]

## Cc1cc(NC(=O)c2ccc([N+](=O)[O-])o2)ccc1NC(=O)c1ccco1
  cell number change: -63%
[1]
  AC50: 14.6 µM [falling, partial curve]
[2]
  AC50: 8.2 µM [falling, partial curve]

## Cc1ccccc1C(=O)NC(NC(=O)c1ccccc1C)c1cccc([N+](=O)[O-])c1
[1]
  AC50: 0.092 µM [falling, full curve, poor fit]
[2]
  AC50: 4.11 µM [rising, single point]

## CCOC(=O)N1CCN(c2c(NCCN3CCN(c4ccccc4F)CC3)c(=O)c2=O)CC1
  cell number change: -13.2%
[1]
  AC50: 3.26 µM [falling, single point]

## COc1ccc(NC(=O)c2ccco2)c(OC)c1
  cell number change: 50.2%
[1]
  AC50: 18.4 µM [rising, single point]
[2]
  AC50: 6.51 µM [falling, partial curve, poor fit]

## Cc1ccc(-c2nc(S(=O)(=O)c3ccc(C)cc3)c(N3CCOCC3)o2)cc1
  cell number change: -8.97%
[2]
  AC50: 29.1 µM [rising, single point]

## O=C(N/N=C/c1ccc(Cl)s1)C(O)c1ccccc1 (stereo not given)
  cell number change: -13.2%
[2]
  AC50: 0.116 µM [rising, full curve, poor fit]

## COc1ccc(NC(=O)CO/N=C2/CCCc3nonc32)c(OC)c1
  cell number change: 8.06%
[1]
  AC50: 0.411 µM [falling, full curve, poor fit]

## N=C(N)SCc1cn2ccccc2n1
  cell number change: 23%
[1]
  AC50: 0.82 µM [rising, full curve, poor fit]

## COCC(C)n1c(C)cc(C(=O)COC(=O)c2ccc(N3CCCC3=O)cc2)c1C (stereo not given)
  cell number change: 9.07%
[2]
  AC50: 5.8 µM [falling, single point]

## COc1ccc(NS(=O)(=O)c2cc(NC(=O)/C=C/c3ccccc3OC)ccc2N2CCCCC2)cc1
  cell number change: 14.1%
[2]
  AC50: 1.84 µM [rising, full curve]

## CCOc1ccccc1-c1nnc(SCC(=O)NC2(C#N)CCCC2)o1
[2]
  AC50: 32.6 µM [falling, single point]

## O=C(NCC(=O)N1CCCCCC1)c1ccc(OC(F)F)cc1
  cell number change: 8.38%

## CC(CCc1ccc(O)cc1)NC(c1ccccc1)c1ccc(Cl)cc1 (stereo not given)
  cell number change: -70.1%
[1]
  AC50: 18.4 µM [falling, partial curve]
[2]
  AC50: 14.6 µM [falling, partial curve, poor fit]

## CC(=O)N(\C=C/C=C/C=C1\Sc2ccccc2C1=O)c1ccccc1
  cell number change: -12.3%
[1]
  AC50: 6.51 µM [falling, single point]
[2]
  AC50: 6.51 µM [falling, single point]

## COc1ccc(CNC(=O)CN(C(=O)CCC(=O)Nc2nccs2)c2ccc(C)cc2)cc1
  cell number change: 113%
[1]
  AC50: 25.9 µM [rising, single point]

## CCc1ccc(NC(=S)NNC(=O)c2ccccc2OC(F)F)cc1
[2]
  AC50: 0.00461 µM [rising, full curve, poor fit]

## CCOC(=O)C1=C(C)N(C)C(=O)NC1c1cccc2ccccc12 (stereo not given)
  cell number change: 21.4%

## S=c1[nH]nc(-c2ccco2)n1-c1ccc(Cl)cc1
  cell number change: -14.1%
[2]
  AC50: 4.11 µM [falling, full curve, poor fit]

## O=C1CCC([N+](=O)[O-])C(c2cccc(Cl)c2Cl)N1 (stereo not given)
  cell number change: 3.09%

## Cc1ccc(/C=N/n2c(C3CCCCC3)n[nH]c2=S)o1
  cell number change: -47.6%
[1]
  AC50: 29.1 µM [falling, partial curve]
[2]
  AC50: 11.6 µM [falling, partial curve, poor fit]
